Data published in article PMC7382241, “Genomic discovery of an evolutionarily programmed modality for small-molecule targeting of an intractable protein surface” (Proceedings of the National Academy of Sciences of the …, 2020).
Numbering of substitutions follows the chain as printed. Names may count otherwise. These are yes or no findings as the source states them, for the method shown. For some assays here: In cells and extracts the contact can be indirect. Each block holds one binder with its values, some of them ahead of it.

The chains behind the UniProt entries cited, without tags or fusion partners.
UniProt P68106: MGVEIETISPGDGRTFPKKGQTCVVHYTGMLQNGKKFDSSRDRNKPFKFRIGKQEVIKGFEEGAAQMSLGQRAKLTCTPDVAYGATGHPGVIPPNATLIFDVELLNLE

Columns and labels:
[1] = target: FKBP12 as used in the pull-down with the four CEP250 domains (human) (UniProt P62942); test: pull-down; purified His-tagged CEP250 domains with FKBP12, DMSO or WDB001; blot for FKBP12 (Fig. S2b); both purified
[2] = target: N-terminal AVI-tagged and biotinylated FKBP12 (human) (UniProt P62942); test: pull-down; in vitro pull-down of recombinantly expressed CEP250 domains with FKBP12–WDB001 (SI Appendix, Fig. S2B)
[3] = target: FKBP12.6 (UniProt P68106); test: SEC; FKBP protein with WDB002 added in excess to CEP250_(11.4), 4 °C overnight; Superdex 200 in 12.5 mM HEPES pH 7.4, 75 mM NaCl; fractions on SDS-PAGE (Fig. S10c); both purified
[4] = target: N-terminal AVI-tagged and biotinylated FKBP12 (human) (UniProt P62942); test: condition: with WDB002; up to 25 µM (key of Fig. S7b); SPR; Biacore S200, 25 °C; ~100 RU biotinylated FKBP12 captured on CAP chip and saturated with WDB002 (ABA injection); CEP250 or HSBP1 protein injected over a concentration range with compound; 10 mM HEPES pH 7.4, 150 mM NaCl, 0.05% Surfactant-P20, 2% DMSO; 1:1 Langmuir fit; both purified
[5] = target: N-terminal AVI-tagged and biotinylated FKBP12 (human) (UniProt P62942); test: SPR; Biacore S200, 25 °C; AVI-FKBP12 immobilised on an NTA sensor chip and saturated with WDB002 in the buffer; CEP250 injected over a concentration range; both purified

binding [4]: no binding
B6: CEP250_(29.2) A2194T (domain or fragment, UniProt Q9BV73 1981-2281)
chain: EQHLLEQAELSRSLEASTATLQASLDACQAHSRQLEEALRIQEGEIQDQDLRYQEDVQQLQQALAQRDEELRHQQEREQLLEKSLAQRVQENMIQEKQNLGQEREEEEIRGLHQSVRELQLTLAQKEQEILELRETQQRNNLEALPHSHKTSPMEEQSLKLDSLEPRLQRELERLQAALRQTEAREIEWREKAQDLALSLAQTKASVSSLQEVTMFLQASVLERDSEQQRLQDELELTRRALEKERLHSPGATSTAELGSRGEQGVQLGEVSGVEAEPSPDGMEKQSWRQRLEHLQQAVAR

binding [5]: no binding
B7: CEP250_(29.2) Ala2194Thr (domain or fragment, UniProt Q9BV73 1981-2281)
chain: B6 chain

binding [5]: no binding
B8: CEP250_(29.2) Leu2197Phe (domain or fragment, UniProt Q9BV73 1981-2281)
chain: B6 chain with T214A, L217F

The next lines start with the binder.

B1: CEP250 N-terminal domain (amino acids 1-362) (domain or fragment, UniProt Q9BV73 1-362)
chain: METRSPGLNNMKPQSLQLVLEEQVLALQQQMAENQAASWRKLKNSQEAQQRQATLVRKLQAKVLQYRSWCQELEKRLEATGGPIPQRWENVEEPNLDELLVRLEEEQQRCESLAEVNTQLRLHMEKADVVNKALREDVEKLTVDWSRARDELMRKESQWQMEQEFFKGYLKGEHGRLLSLWREVVTFRRHFLEMKSATDRDLMELKAEHVRLSGSLLTCCLRLTVGAQSREPNGSGRMDGREPAQLLLLLAKTQELEKEAHERSQELIQLKSQGDLEKAELQDRVTELSALLTQSQKQNEDYEKMIKALRETVEILETNHTELMEHEASLSRNAQEEKLSLQQVIKDITQVMVEEGDNIAQG
binding [1]: no binding (tested: with WDB001)

B2: CEP250 N-terminal domain (1 to 362) (domain or fragment, UniProt Q9BV73 1-362)
chain: B1 chain
binding [2]: no binding

B3: CEP250_(11.4), residues 2134-2231 of human CEP250 (domain or fragment, UniProt Q9BV73 2134-2231)
chain: MEEQSLKLDSLEPRLQRELERLQAALRQTEAREIEWREKAQDLALSLAQTKASVSSLQEVAMFLQASVLERDSEQQRLQDELELTRRALEKERLHSPG
binding [3]: no binding (tested: with WDB002)

B4: CEP250 intermediate domain I1 (380 to 1,200) (domain or fragment, UniProt Q9BV73 380-1200)
chain: DYQDADKALTLVRSVLTRRRQAVQDLRQQLAGCQEAVNLLQQQHDQWEEEGKALRQRLQKLTGERDTLAGQTVDLQGEVDSLSKERELLQKAREELRQQLEVLEQEAWRLRRVNVELQLQGDSAQGQKEEQQEELHLAVRERERLQEMLMGLEAKQSESLSELITLREALESSHLEGELLRQEQTEVTAALARAEQSIAELSSSENTLKTEVADLRAAAVKLSALNEALALDKVGLNQQLLQLEEENQSVCSRMEAAEQARNALQVDLAEAEKRREALWEKNTHLEAQLQKAEEAGAELQADLRDIQEEKEEIQKKLSESRHQQEAATTQLEQLHQEAKRQEEVLARAVQEKEALVREKAALEVRLQAVERDRQDLAEQLQGLSSAKELLESSLFEAQQQNSVIEVTKGQLEVQIQTVTQAKEVIQGEVRCLKLELDTERSQAEQERDAAARQLAQAEQEGKTALEQQKAAHEKEVNQLREKWEKERSWHQQELAKALESLEREKMELEMRLKEQQTEMEAIQAQREEERTQAESALCQMQLETEKERVSLLETLLQTQKELADASQQLERLRQDMKVQKLKEQETTGILQTQLQEAQRELKEAARQHRDDLAALQEESSSLLQDKMDLQKQVEDLKSQLVAQDDSQRLVEQEVQEKLRETQEYNRIQKELEREKASLTLSLMEKEQRLLVLQEADSIRQQELSALRQDMQEAQGEQKELSAQMELLRQEVKEKEADFLAQEAQLLEELEASHITEQQLRASLWAQEAKAAQLQLRLRSTESQLEALAAEQQPGNQAQAQAQLASLYSALQQALGSVCESR
binding [2]: no binding

B5: CEP250 intermediate domain I2 (1,219 to 2,124) (domain or fragment, UniProt Q9BV73 1219-2124)
chain: DQNGARSLFKRGPLLTALSAEAVASALHKLHQDLWKTQQTRDVLRDQVQKLEERLTDTEAEKSQVHTELQDLQRQLSQNQEEKSKWEGKQNSLESELMELHETMASLQSRLRRAELQRMEAQGERELLQAAKENLTAQVEHLQAAVVEARAQASAAGILEEDLRTARSALKLKNEEVESERERAQALQEQGELKVAQGKALQENLALLTQTLAEREEEVETLRGQIQELEKQREMQKAALELLSLDLKKRNQEVDLQQEQIQELEKCRSVLEHLPMAVQEREQKLTVQREQIRELEKDRETQRNVLEHQLLELEKKDQMIESQRGQVQDLKKQLVTLECLALELEENHHKMECQQKLIKELEGQRETQRVALTHLTLDLEERSQELQAQSSQIHDLESHSTVLARELQERDQEVKSQREQIEELQRQKEHLTQDLERRDQELMLQKERIQVLEDQRTRQTKILEEDLEQIKLSLRERGRELTTQRQLMQERAEEGKGPSKAQRGSLEHMKLILRDKEKEVECQQEHIHELQELKDQLEQQLQGLHRKVGETSLLLSQREQEIVVLQQQLQEAREQGELKEQSLQSQLDEAQRALAQRDQELEALQQEQQQAQGQEERVKEKADALQGALEQAHMTLKERHGELQDHKEQARRLEEELAVEGRRVQALEEVLGDLRAESREQEKALLALQQQCAEQAQEHEVETRALQDSWLQAQAVLKERDQELEALRAESQSSRHQEEAARARAEALQEALGKAHAALQGKEQHLLEQAELSRSLEASTATLQASLDACQAHSRQLEEALRIQEGEIQDQDLRYQEDVQQLQQALAQRDEELRHQQEREQLLEKSLAQRVQENMIQEKQNLGQEREEEEIRGLHQSVRELQLTLAQKEQEILELRETQQRNNLEA
binding [2]: no binding
